Data reported in article PMC12361455.
Results are given in words; binding and its absence hold for the method and conditions named. In cells and extracts the contact can be indirect. Some results given as binding are weak or reduced against the parent protein; the word gives no strength. Blank lines part the entries; values can stand above or below the binder they belong to.

Key:
[1] = biological target: T1, FGF receptor 4 (FGFR4) (mouse (endogenous in BMDMs and RAW264.7)), Q03142; experiment: co-IP; lysates of mouse BMDMs and RAW264.7 macrophages in IP lysis buffer; anti-FGFR4 antibody or IgG overnight at 4 °C, Protein A/G agarose beads 4 h at 4 °C; western blot of the precipitate; conditions: remark: other sources report otherwise
T1 chain: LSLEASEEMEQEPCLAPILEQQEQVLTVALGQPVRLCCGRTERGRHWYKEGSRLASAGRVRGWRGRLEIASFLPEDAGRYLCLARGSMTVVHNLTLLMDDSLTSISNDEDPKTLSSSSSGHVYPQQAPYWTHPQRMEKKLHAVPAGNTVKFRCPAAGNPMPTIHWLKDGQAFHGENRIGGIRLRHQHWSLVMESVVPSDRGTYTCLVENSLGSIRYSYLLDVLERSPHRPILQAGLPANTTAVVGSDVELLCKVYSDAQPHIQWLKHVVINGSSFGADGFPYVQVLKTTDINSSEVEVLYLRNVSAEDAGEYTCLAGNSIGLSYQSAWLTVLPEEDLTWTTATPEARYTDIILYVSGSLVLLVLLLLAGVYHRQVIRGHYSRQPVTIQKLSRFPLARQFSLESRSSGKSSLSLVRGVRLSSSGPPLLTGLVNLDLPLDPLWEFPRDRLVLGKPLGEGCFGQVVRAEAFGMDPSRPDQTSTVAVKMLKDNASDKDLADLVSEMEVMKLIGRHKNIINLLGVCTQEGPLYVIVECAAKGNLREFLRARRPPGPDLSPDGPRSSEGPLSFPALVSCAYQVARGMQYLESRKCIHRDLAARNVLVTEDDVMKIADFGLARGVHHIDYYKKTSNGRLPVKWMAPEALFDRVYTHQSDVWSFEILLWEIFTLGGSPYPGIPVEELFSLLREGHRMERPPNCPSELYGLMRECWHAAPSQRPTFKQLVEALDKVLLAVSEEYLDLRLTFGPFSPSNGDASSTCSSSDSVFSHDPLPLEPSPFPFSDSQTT

[2] = biological target: T1, FGF receptor 4 (FGFR4) (mouse …); experiment: co-IP; lysates of RAW264.7 macrophages overexpressing NF2-WT or NF2-Mut, treated with LPS + rFGF15; anti-FGFR4 antibody or IgG overnight at 4 °C, Protein A/G agarose beads 4 h at 4 °C; western blot of the precipitate; conditions: remark: other sources report otherwise

- binding [1]: binds
B1: neurofibromin 2 (NF2/Merlin), P46662 1-596 (protein)
chain: MAGAIASRMSFSSLKRKQPKTFTVRIVTMDAEMEFNCEMKWKGKDLFDLVCRTLGLRETWFFGLQYTIKDTVAWLKMDKKVLDHDVSKEEPVTFHFLAKFYPENAEEELVQEITQHLFFLQVKKQILDEKVYCPPEASVLLASYAVQAKYGDYDPSVHKRGFLAQEELLPKRVINLYQMTPEMWEERITAWYAEHRGRARDEAEMEYLKIAQDLEMYGVNYFTIRNKKGTELLLGVDALGLHIYDPENRLTPKISFPWNEIRNISYSDKEFTIKPLDKKIDVFKFNSSKLRVNKLILQLCIGNHDLFMRRRKADSLEVQQMKAQAREEKARKQMERQRLAREKQMREEAERTRDELERRLLQMKEEATMANEALMRSEETADLLAEKAQITEEEAKLLAQKAAEAEQEMQRIKATAIRTEEEKRLMEQKVLEAEVLALKMAEESERRAKEADQLKQDLQEAREAERRAKQKLLEIATKPTYPPMNPIPPPLPPDIPSFDIIADSLSFDFKDTDMKRLSMEIEKEKVEYMEKSKHLQEQLNELKTEIEALKLKERETALDVLHSESSDRGGPSSKHNTIKKLTLQSAKSRVAFFEEL

- binding [2]: binds
B2: wild-type NF2 (NF2-WT), P46662 1-596 (protein)
chain: B1 chain
